Data from PubChem BioAssay AID2685 (National Center for Advancing Translational Sciences (NCATS), 2010).
This is one part of the list. Further columns of the screen follow, without active or inactive calls. The list favours compounds with an active or inconclusive main result. Words in brackets tell the shape of the fitted curve; partial curves, single points and poor fits give uncertain potencies.

Experiment: qHTS Assay for Lipid Storage Modulators in Drosophila S3 Cells;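 as to cell number change: cells counted by Cell Tracker Red CMTPX staining in the red channel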
Details: BODIPY lipid droplet fluorescence, 18-24 h; for cell number change: measured here: cell count max response, cells fed with added oleic acid
Method in brief: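 Drosophila S3 cells got compounds at several concentrations plus oleic acid (400 uM solution). Laser-scanning cytometry with 488 nm excitation read lipid droplets at 500-530 nm and cells at 575-640 nm. Percent activity was relative to 20 uM Triacsin C.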

[1] = measured here: lipid fluorescence (Fed channel) AC50, cells fed with added oleic acid
[2] = measured here: cell number channel AC50, cells fed with added oleic acid

Row | SMILES | cell number change | AC50 [1] | AC50 [2]
1 | N#C/C(=C\c1cc2c(cc1Br)OCO2)C(=O)NCC1CCCO1 (configuration not stated) | -22.9% | 29.1 µM [falling, single point] | 
2 | COc1ccc(C2=CC(=O)C=CC2=O)cc1 | -41.1% | 6.51 µM [falling, full curve] | 5.8 µM [falling, full curve]
3 | O=S(=O)(c1ccccc1)c1nc(-c2ccccc2)oc1N1CCCCC1 | -98.4% |  | 4.61 µM [falling, single point]
4 | CCOc1ccc(C(=O)Nc2ccc3c(c2)OCCO3)cc1 | -9.45% | 29.1 µM [rising, single point] | 
5 | COc1ccc(-n2nc3c(c2NC(=O)C2CCCC2)CS(=O)C3)cc1 (configuration not stated) | 17.1% |  | 
6 | O=C(Cn1c(=O)oc2cc(S(=O)(=O)N3CCOCC3)ccc21)N1CCc2ccccc2C1 | -36.3% | 6.51 µM [falling, single point] | 18.4 µM [falling, single point]
7 | Cc1nn(Cc2ccc(Cl)cc2)c(C)c1NC(=O)CCCn1nc(C)c([N+](=O)[O-])c1C |  | 1.46 µM [falling, full curve] | 
8 | COc1ccc([C@H]2CC(=O)C=C(c3ccc(Cl)c(C(F)(F)F)c3)C2)cc1 | 1.49% |  | 
9 | CCOC(=O)COc1ccc2c(c1)C(=O)CC1(CCN(C(C)=O)CC1)O2 | -13.9% |  | 0.103 µM [falling, full curve, poor fit]
10 | O=C(N/N=C1/CCCc2ccccc21)c1cc([N+](=O)[O-])cc([N+](=O)[O-])c1 |  | 0.0731 µM [falling, full curve, poor fit] | 0.0651 µM [falling, full curve, poor fit]
11 | Cc1ccc(S(=O)(=O)NNC(=O)c2ccccc2-n2cccc2)cc1 | 47% |  | 0.82 µM [rising, partial curve]
12 | C=CCn1c(SCCCC)nc(O)cc1=O | 8.73% |  | 
13 | COC(=O)c1sccc1-n1cccc1C(=O)N1CCOCC1 | -22.2% | 1.46 µM [falling, full curve, poor fit] | 
14 | O=S(=O)(Cc1ccccc1)Nc1cccc(Br)c1 | 5.9% | 8.2 µM [falling, partial curve] | 
15 | CC1(c2nnc(-c3ccncc3)o2)CC(c2c(Cl)cccc2Cl)=NO1 (configuration not stated) | 18.2% | 29.1 µM [rising, single point] | 
16 | Cc1nn(CC#N)c(=O)n1-c1ccc(C(C)C)cc1 | 26.1% | 7.08 µM [rising, partial curve, poor fit] | 
17 | CC(C(=O)NCCS(=O)(=O)c1ccc(Cl)cc1)S(=O)(=O)c1ccc(Cl)cc1 (configuration not stated) | -19.3% |  | 
18 | CC(C)CCNc1nc(N)c([N+](=O)[O-])c(NC2CCCCC2)n1 | 4.23% |  | 
19 | Cc1noc(C)c1C(=O)NC(C)C12CC3CC(CC(C3)C1)C2 (configuration not stated) | -21.8% | 16.4 µM [falling, partial curve] | 
20 | C=CCn1c(CCSCc2ccccc2)n[nH]c1=S | 10.8% | 0.517 µM [falling, full curve, poor fit] | 
21 | COc1ccc(C(=O)CN2C(=O)c3ccccc3C2=O)c(OC)c1C |  | 4.61 µM [falling, partial curve] | 5.17 µM [falling, partial curve]
22 | CCCCn1c(CNC(=O)CC)nc2ccccc21 |  |  | 0.731 µM [falling, full curve]

Row | SMILES | cell number change | AC50 [1] | AC50 [2]
23 | O=C(COC(=O)c1ccc(NS(=O)(=O)c2cccs2)cc1)NCC1CCCO1 (configuration not stated) |  | 0.651 µM [rising, full curve] | 
24 | COc1ccc(OCC(=O)N(Cc2sccc2C)C2CCS(=O)(=O)C2)cc1 (configuration not stated) | -25.1% |  | 
25 | Cc1cccc(C)c1OCc1nnc(SCC(=O)Nc2ccc(N3CCOCC3)cc2)o1 | 6.67% |  | 
26 | Cc1onc(-c2ccccc2)c1C(=O)N/N=C/c1c[nH]c2ccccc12 | 0.223% |  | 
27 | C=C1CCC[C@]2(C)C[C@H]3OC(=O)C(CNCCN(CC)CC)[C@H]3CC12 (some centres not stated) | -36.9% | 8.2 µM [falling, partial curve] | 20.6 µM [falling, single point]
28 | CNC(=O)NC(=O)C(C)Oc1ccccc1F (configuration not stated) |  | 5.17 µM [rising, full curve, poor fit] | 
29 | CCSc1nnc(NC(=O)COc2ccccc2[N+](=O)[O-])s1 | -22% | 32.6 µM [falling, single point] | 
30 | CS(=O)(=O)N1CCc2cc(-c3csc(NC(=O)C(c4ccccc4)c4ccccc4)n3)ccc21 | 56.6% |  | 10.3 µM [rising, partial curve, poor fit]
31 | CCCc1cc(-c2n[nH]c(C(=O)OCC)c2-c2cscn2)c(O)cc1O | -18.5% | 29.1 µM [falling, single point] | 
32 | Cc1cc(C)cc(NC(=O)c2ccc(N3C(=O)C4CCCCC4C3=O)cc2)c1 (configuration not stated) |  | 28.2 µM [falling, single point] | 
33 | COc1cccc2c1C(CO)N1C(C#N)C3CC(C(=O)O)C(C1C2)N3C (configuration not stated) | -25.9% | 18.4 µM [falling, partial curve] | 
34 | CC(=O)Nc1cccc(OCc2ccc(S(=O)(=O)Cc3ccccc3)cc2)c1 | 41.2% | 8.2 µM [rising, partial curve] | 5.17 µM [rising, full curve, poor fit]
35 | COc1ccc(-c2noc(N3CCCC(C(=O)Nc4ccc(C(C)=O)cc4)C3)n2)cc1 (configuration not stated) | -17.7% | 0.58 µM [rising, single point] | 
36 | COc1cc(C(=O)N2CCN(c3cc(Cl)ccc3Cl)CC2)cc(OC)c1OC | 4.26% | 0.103 µM [rising, full curve, poor fit] | 
37 | COc1ccc(C(CCNCc2ccccc2)c2ccc(F)cc2)cc1 (configuration not stated) | -46.1% | 16.4 µM [falling, partial curve] | 14.6 µM [falling, single point]
38 | O=C(NCc1nc2ccccc2[nH]1)c1cccc(S(=O)(=O)N2CCCC2)c1 | 7.65% | 2.31 µM [rising, partial curve] | 
39 | CC(C)c1ccc(NC(=S)N2CCCC2)cc1 | -3.47% |  | 5.8 µM [rising, single point]
40 | CCOC(=O)c1c(-c2ccc(OC)cc2)csc1NC(=O)CSc1nnc(C)c(=O)[nH]1 | -5.14% |  | 
41 | O=C1CC(N(CCc2ccccc2)C(=S)Nc2ccccc2)C(=O)N1c1ccccc1 (configuration not stated) | -5.1% | 29.1 µM [rising, partial curve] | 
42 | CCOC(=O)c1sc2nc(CC(=O)OC)nc(NCC(=O)OC)c2c1C | -69.3% |  | 1.84 µM [falling, partial curve]
43 | COc1ccc(OC)c(NC(=O)CN2C(=O)C3(OCCCO3)c3ccccc32)c1 | -7.44% |  | 
44 | CCCNc1ncnc2sc(C)c(C)c12 | 213% | 16.4 µM [rising, partial curve] | 14.6 µM [rising, partial curve]

Row | SMILES | cell number change | AC50 [1] | AC50 [2]
45 | Cc1ccc2c(c1)N(CC(=O)N1CCCC1)C(=O)C(C)O2 (configuration not stated) | 21.1% |  | 0.366 µM [rising, full curve, poor fit]
46 | CCCCCCCCCCCCN1C/C(=C\C(=O)OCC)c2ccccc2S1(=O)=O | -12.6% | 3.66 µM [falling, single point] | 
47 | NC(CSC12CC3CC(CC(C3)C1)C2)C(=O)O (configuration not stated) | 1.18% |  | 
48 | c1ccc(Cn2c(SCCN3CCOCC3)nnc2-c2cccnc2)cc1 | 38.7% |  | 32.6 µM [rising, single point]
49 | O=C(COC(=O)c1ccccc1O)NCCC1=CCCCC1 | -44.3% | 18.4 µM [falling, single point] | 
50 | COc1ccc(NC(=O)Cn2ncn3nc(-c4ccc(OC)cc4)cc3c2=O)cc1 | -1.18% |  | 
51 | COc1cc(C(=O)N(Cc2cc3cc(C)ccc3[nH]c2=O)CC2CCCO2)cc(OC)c1OC (configuration not stated) | 6.45% | 0.13 µM [rising, full curve, poor fit] | 
52 | O=c1[nH]c2ccc(S(=O)(=O)N3CCN(c4ccccc4F)CC3)cc2s1 | 73.7% |  | 
53 | Cn1c(=O)cc(SCC(=O)N2CCCC2)c2cc(Cl)ccc21 | 13% | 0.461 µM [rising, full curve] | 
54 | CC1=CS/C(=C(/C#N)C(=O)N2CCOCC2)N1c1ccccc1 | 25.1% |  | 0.184 µM [rising, full curve, poor fit]
55 | CC(=O)Nc1ccc(/C=C2\CCc3ccccc3C2=O)cc1 | -53.9% |  | 29.1 µM [falling, single point]
56 | CCOC(=O)c1ccc(N2C(=O)C(CC(=O)NC)N(CCc3ccc(OC)c(OC)c3)C2=S)cc1 (configuration not stated) | 65.5% |  | 1.84 µM [rising, full curve]
57 | CCOc1ccc(-c2ccc(SC)nn2)cc1 | -14.2% |  | 
58 | C#CCOCCOCCOCCNc1nc(N2CCN(C(=O)CCCCCCCCCCNC(=O)Cn3cc(C[C@@H](C)O)nn3)CC2)nc(N2CCN(C(=O)CCCCCCCCCCNC(=O)[C@@H](CCSC)n3cc(CCO)nn3)CC2)n1 | 1.25% |  | 
59 | ON=Cc1cccn1-c1ccccc1 | 22.2% | 3.66 µM [rising, partial curve] | 
60 | COc1ccccc1CC(NC(C)=O)C(=O)NC1CCN(C(=O)c2ccc(C)cc2)CC1 (configuration not stated) | 4.76% |  | 
61 | Cc1ccc(N(C(=O)Cc2c[nH]c3ccccc23)C(C(=O)NC2CCCCC2)c2ccco2)cc1 (configuration not stated) | 8.95% |  | 3.66 µM [rising, single point]
62 | COc1cc(/C=C/C(=O)OCC(=O)Nc2nnc(-c3ccccc3)o2)cc(OC)c1OC | -3.52% | 29.1 µM [rising, single point] | 
63 | CCCCSc1nnc(CSc2nc3nc(C)cc(C)n3n2)o1 | -9.02% |  | 
64 | Nc1nc2ccccc2n1CCOc1ccc(Cl)cc1 | -15.5% | 29.1 µM [falling, single point] | 

Shown in markdown: entries from further up

| Row | SMILES | cell number change | AC50 [1] | AC50 [2] |
| --- | --- | --- | --- | --- |
| 52 | O=c1[nH]c2ccc(S(=O)(=O)N3CCN(c4ccccc4F)CC3)cc2s1 | 73.7% |  |  |
| 53 | Cn1c(=O)cc(SCC(=O)N2CCCC2)c2cc(Cl)ccc21 | 13% | 0.461 µM [rising, full curve] |  |
| 54 | CC1=CS/C(=C(/C#N)C(=O)N2CCOCC2)N1c1ccccc1 | 25.1% |  | 0.184 µM [rising, full curve, poor fit] |
| 55 | CC(=O)Nc1ccc(/C=C2\CCc3ccccc3C2=O)cc1 | -53.9% |  | 29.1 µM [falling, single point] |
| 56 | CCOC(=O)c1ccc(N2C(=O)C(CC(=O)NC)N(CCc3ccc(OC)c(OC)c3)C2=S)cc1 (configuration not stated) | 65.5% |  | 1.84 µM [rising, full curve] |
